Patent US10821115B2, “Compounds that inhibit Mcl-1 protein” (priority 2017, dated 2020)
At least one structure is not confirmed: it was looked up by name or label, or the drawing left a doubt. Some entries repeat one wording, which the source may state once for all of them.

Tested on: OPM-2 Luc cells
Assay: tumor PD model (OPM-2 Luc)
Assay type: in vivo
Conditions: dosed orally to female athymic nude mice inoculated with OPM-2 Luc cells; compared with Reference Compound 1
Experimental: Both compounds were dosed orally to female athymic nude mice inoculated with OPM-2 Luc cells.

| Structure (SMILES) | in vivo efficacy relative to Reference Compound 1 in a tumor PD model |
| --- | --- |
| CCO[C@]1(CN2CCN(C3COC3)CC2)/C=C/C[C@H](C)[C@@H](C)S(=O)(=O)NC(=O)c2ccc3c(c2)N(C[C@@H]2CC[C@H]21)C[C@@]1(CCCc2cc(Cl)ccc21)CO3 [Example 2, (1 S,3′R,6′R,7′R,8′E,11′S,12′R)-6-chloro-7′-ethoxy-11′,12′-dimethyl-7′-((4-(3-oxetanyl)-1-piperazinyl)methyl)-3,4-dihydro-2H, 15′H-spiro[naphthalene-1,22′-[20]oxa[13]thia[1,14]diazatetracyclo[14.7.2.0-3,6˜.0˜19,24˜]pentacosa[8,16,18,24]tetraen]-15′-one 13′,13′-dioxide] | superior in vivo efficacy |
| CCO[C@]1(CN2CCN3CCOC[C@@H]3C2)/C=C/C[C@H](C)[C@@H](CCOC)S(=O)(=O)NC(=O)c2ccc3c(c2)N(C[C@@H]2CC[C@H]21)C[C@@]1(CCCc2cc(Cl)ccc21)CO3 [Example 13, (1 S,3′R,6′R,7′R,8′E,11′S,12′R)-6-chloro-7′-ethoxy-7′-((9aS)-hexahydropyrazino[2,1-c][1,4]oxazin-8(1H)-ylmethyl)-12′-(2-methoxyethyl)-11′-methyl-3,4-dihydro-2H,15′H-spiro[naphthalene-1,22′-[20]oxa[13]thia[1,14]diazatetracyclo[14.7.2.0-3,6˜.0˜19,24˜]pentacosa[8,16,18,24]tetraen]-15′-one 13′,13′-dioxide] | superior in vivo efficacy |
| CCO[C@]1(CN2CCN(C3COC3)CC2)/C=C/C[C@H](C)[C@@H](CCOC)S(=O)(=O)NC(=O)c2ccc3c(c2)N(C[C@@H]2CC[C@H]21)C[C@@]1(CCCc2cc(Cl)ccc21)CO3 [Example 14, (1S,3′R,6′R,7′R,8′E,11′S,12′R)-6-chloro-7′-ethoxy-12′-(2-methoxyethyl)-11′-methyl-7′-((4-(3-oxetanyl)-1-piperazinyl)methyl)-3,4-dihydro-2H,15′H-spiro[naphthalene-1,22′-[20]oxa[13]thia[1,14]diazatetracyclo[14.7.2.0-3,6˜.0˜19,24˜]pentacosa[8,16,18,24]tetraen]-15′-one 13′,13′-dioxide] | superior in vivo efficacy |
